{
  "source": "patent US10624948B2",
  "about": "(Xigen Inflammation Ltd., priority 2013, dated 2020)",
  "assay": "peptide synthesis",
  "details": "whole synthesis",
  "note": "End groups of sequences in plain letters are not given here.",
  "data": [
    {"sequence": "DQSRPVQPFLNLTTPRKPRPPRRRQRRKKRG", "values": [
      {"measurement": "final purity (method not given)", "value": 95.28, "unit": "%"}
    ]}
  ]
}
